The text below walks through data of patent US11667697.

No constants are given. Whether binding was seen depends on the method and setting. Some binding calls cover weakened binding; strength is not graded here.

The target in experiment [1] is VACV H3 protein (vaccinia virus) (UniProt P07240). Briefly: lysate ELISA. A general note: In an ELISA, binding on a coated surface is turned into a signal by an enzyme label.
Experiment [2] shares this target. Description: antigen ELISA/array/BLI.
Experiment [3] addresses VACV A33 protein (vaccinia virus) (UniProt P68617). Briefly: antigen ELISA/array/BLI.

B1: VACV-315 (antibody, V domains shown)
VH: EVQLLESGGGLVQPGGSLKLSCAASGFIFSNYAMGWVRQAPGKGLEWVSALSASDGVTSYADSVKGRFTISRDNSKNTMYLQMNRLRTEDTAIYFCAKGRARVNNIYRYFDHWGQGTLVTVSS
VL: QSVLTQPASVSGSPGQSITISCTGTSSDVGAYTFVSWYQHHPGKAPKLIIYEVSNRPSGVSDRFSGSKSGNTASLTISGLQAEDEADYYCNSYTTTSPWVFGGGTQLTVL
Regarding B1, the binding entry in experiment [1] and in experiment [2] was “binds” each time.

B2: MPXV-79 (antibody, V domains shown)
VH: QVQLVQSGAEVKKPGASVKVSCKASGYSFRSNGISWVRQAPGQGFEWLGWIAAYNGDTKYVQKFQGRLTMTTDTSTDTAYMELWSLRSDDTAVYYCARDPKLGRKGSAFDIWGQGTLVIVSS
VL: EIVLTQSPATLSLSPGGRATLSCRASQSVGNYLTWYQQKPGQAPRLLIFDGSTRATGIPARFSGSGSGTDFTLTISSLEPEDFAVYYCLQRSDLYTFGQGTKVDIK
As for B2, the binding entry in experiment [1] and in experiment [2] was “binds” each time.

B3: MPXV-39 (antibody, V domains shown)
VH: QVQLQQWGAGLLKPSETLSLTCAIYGGSLSGQYWSWIRQPPGRGLEWIGEIHHKGRTNYNPSLKSRVTISIDTSQRQFSLRLTSVSAADTAVYYCASGNYRLGQGTLVTF
VL: DVVLTQSPLTLPVTLGQPASISCRSSQSLVYSDGDTYLNWFQQRPGQAPRRLIYKVSKRDFGVPDRFSGSGSGTDFTLRISRVEAEDVGVYYCMQGTHWPRTFGQGTQVDIK
For the molecule B3, in experiment [3], the binding result is “binds”.
